Measured values reported in patent US20120016004.

Protein sequences, listed by entry. Tags and fused reporters are not part of them. Lines headed by an entry give the natural chain unless they say otherwise; changes in a name come on top.
UniProt Q9UPY3: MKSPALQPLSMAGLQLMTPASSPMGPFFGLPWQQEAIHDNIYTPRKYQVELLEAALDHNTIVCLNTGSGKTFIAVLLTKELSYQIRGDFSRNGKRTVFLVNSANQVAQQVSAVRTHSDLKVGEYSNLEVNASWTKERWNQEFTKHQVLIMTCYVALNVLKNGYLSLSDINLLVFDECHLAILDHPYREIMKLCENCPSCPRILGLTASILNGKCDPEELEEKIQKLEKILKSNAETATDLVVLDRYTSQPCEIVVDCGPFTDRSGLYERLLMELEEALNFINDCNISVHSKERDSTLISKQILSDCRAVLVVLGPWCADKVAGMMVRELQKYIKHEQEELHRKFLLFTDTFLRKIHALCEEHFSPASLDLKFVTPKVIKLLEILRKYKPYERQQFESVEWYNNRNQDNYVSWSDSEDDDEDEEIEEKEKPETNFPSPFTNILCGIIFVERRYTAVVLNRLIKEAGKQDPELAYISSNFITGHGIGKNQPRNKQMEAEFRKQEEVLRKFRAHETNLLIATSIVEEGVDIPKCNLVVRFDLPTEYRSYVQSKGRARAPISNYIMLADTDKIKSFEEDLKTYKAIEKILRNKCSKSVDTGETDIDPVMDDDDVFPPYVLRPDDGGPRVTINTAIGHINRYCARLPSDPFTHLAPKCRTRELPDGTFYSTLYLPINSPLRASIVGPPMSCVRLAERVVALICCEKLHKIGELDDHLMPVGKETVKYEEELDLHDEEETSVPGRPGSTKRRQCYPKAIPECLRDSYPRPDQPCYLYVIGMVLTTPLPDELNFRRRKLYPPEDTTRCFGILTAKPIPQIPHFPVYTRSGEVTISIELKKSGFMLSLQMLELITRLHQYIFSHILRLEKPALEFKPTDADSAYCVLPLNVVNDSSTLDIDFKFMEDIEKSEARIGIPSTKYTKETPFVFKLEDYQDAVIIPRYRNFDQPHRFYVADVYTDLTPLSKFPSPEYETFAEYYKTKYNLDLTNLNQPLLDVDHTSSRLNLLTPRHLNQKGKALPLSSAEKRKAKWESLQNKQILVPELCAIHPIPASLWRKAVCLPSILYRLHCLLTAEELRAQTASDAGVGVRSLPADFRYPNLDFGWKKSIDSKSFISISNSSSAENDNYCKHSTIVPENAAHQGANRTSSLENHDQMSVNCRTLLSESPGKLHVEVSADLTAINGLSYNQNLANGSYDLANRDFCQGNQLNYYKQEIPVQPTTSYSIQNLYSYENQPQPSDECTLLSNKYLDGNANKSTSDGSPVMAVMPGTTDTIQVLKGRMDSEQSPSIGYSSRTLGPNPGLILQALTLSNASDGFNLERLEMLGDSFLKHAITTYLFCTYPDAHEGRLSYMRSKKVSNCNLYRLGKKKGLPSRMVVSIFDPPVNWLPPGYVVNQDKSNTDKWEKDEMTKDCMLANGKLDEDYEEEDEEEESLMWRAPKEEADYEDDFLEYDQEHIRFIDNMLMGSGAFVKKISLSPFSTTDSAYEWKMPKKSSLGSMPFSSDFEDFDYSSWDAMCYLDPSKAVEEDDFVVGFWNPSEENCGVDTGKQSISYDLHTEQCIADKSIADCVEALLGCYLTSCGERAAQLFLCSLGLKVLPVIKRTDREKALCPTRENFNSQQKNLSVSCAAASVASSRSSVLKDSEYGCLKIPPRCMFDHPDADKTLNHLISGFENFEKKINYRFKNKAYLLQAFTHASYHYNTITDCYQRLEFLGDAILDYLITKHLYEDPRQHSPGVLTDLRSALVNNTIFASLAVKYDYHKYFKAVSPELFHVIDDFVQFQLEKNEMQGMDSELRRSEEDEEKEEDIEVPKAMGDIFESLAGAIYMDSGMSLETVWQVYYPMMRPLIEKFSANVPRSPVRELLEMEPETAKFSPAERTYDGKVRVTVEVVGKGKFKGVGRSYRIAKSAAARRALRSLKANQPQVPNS

Target: Dicer (human) (UniProt Q9UPY3)
Experiment: enzyme reaction in vitro
Conditions: PS backbone; two copies of the strand joined at 5' ends through glycerol linker X, two free 3' ends; 10 nM target and 10 nM oligo, 0.025 U Dicer, 37 C 1 h; text states only that the compounds of the invention give an optimal structure for binding and cleavage; purified recombinant protein; protein details: Invitrogen human Dicer enzyme; label: 5'-32P on target RNA

Sequence: AAUGCUUGUCUGUGCAGUCC / GGACUGCACAGACAAGCAUU
- activity on this sequence: active
